Earlier results in US20180161449A1 (OCULIS EHF, priority 2015, published 2018).
At least one compound was matched to its structure with a doubt left.

Settings: cited from earlier work

For `OC[C@H]1O[C@@H]2O[C@H]3[C@H](O)[C@@H](O)[C@@H](O[C@H]4[C@H](O)[C@@H](O)[C@@H](O[C@H]5[C@H](O)[C@@H](O)[C@@H](O[C@H]6[C@H](O)[C@@H](O)[C@@H](O[C@H]7[C@H](O)[C@@H](O)[C@@H](O[C@H]1[C@H](O)[C@H]2O)O[C@@H]7CO)O[C@@H]6CO)O[C@@H]5CO)O[C@@H]4CO)O[C@@H]3CO` [α-Cyclodextrin], the “Aqueous solubility of the cyclodextrin” value is listed as 13 % (w/v).
